PubChem BioAssay AID652259 | Drosophila RNAi Screening Center – 2013

Assay: 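Knock-downs that push a Wingless-driven reporter up or down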 (primary screen)
System: Drosophila clone 8 imaginal disc epithelial cells
Reagents: long dsRNA against Drosophila genes
Treatment: pathway stimulated by co-transfected Wingless expression plasmid
Measurement: 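Firefly luciferase from a tcf-site Wingless reporter, measured alongside co-transfected Renilla luciferase that tracks transfection; pathway stimulated by a Wingless plasmid; the firefly-to-Renilla ratio is not deposited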
Scale: firefly reporter light: higher = more Wg reporter light, before normalisation; Renilla control light: higher = more transfected or surviving cells
Rule for the call: 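a knock-down is a candidate when at least two out of four statistical tests show it departing from its plate mean; one test alone signals a weak candidate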
Calls: active = candidate regulator (raises or lowers reporter); inactive = not a candidate
The deposit covers about 22,000 reagents; this is a random part of those that have a named target and a result. In the full data, 233 (1.1%) got an active call. 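Light values are raw, unnormalised plate reads; the ratio scores behind the reporter calls were not deposited.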 A number with no mark means an inactive call. Reagents against one gene are numbered here. Names joined by + are all predicted targets of the reagent. Not stated in the record: the amount of reagent, the time to read-out, the dose of the treatment.

target | reagent | firefly reporter light, replicate 1 | firefly reporter light, replicate 2 | Renilla control light, replicate 1 | Renilla control light, replicate 2
CG34266 (GeneID 5740465) | 1 | 2150 | 8921 | 720 | 2661
Nplp1 (GeneID 38003) | 1 | 11040 | – | 3092 | –
nonA-l (GeneID 42026) | 1 | 10941 | – | 2648 | –
l(3)80Fg (GeneID 3354941) | 1 | 4.53e5 | 5.22e5 | 1.97e5 | 1.98e5
l(3)80Fg (GeneID 3354941) | 2 | 7.78e5 | 8.83e5 | 3.41e5 | 3.10e5
CG43174 (retired record) + CG43173 (retired record) | 1 | 2073 | – | 1240 | –
mxc (GeneID 31869) | 1 | 20576 | – | 8930 | –
Jhbp12 (GeneID 42924) | 1 | 9149 | – | 11357 | –
nst (GeneID 39434) | 1 | 3861 | – | 1427 | –
sfl (GeneID 38736) | 1 | 2080 | – | 1239 | –
sfl (GeneID 38736) | 2 | 3152 | – | 1122 | –
Bili (GeneID 43019) | 1 | 4256 | 6765 | 1491 | 1274
Obp18a (GeneID 32897) | 1 | 19128 | – | 10938 | –
shu (GeneID 45360) | 1 | 10488 | – | 3752 | –
Nep6 (GeneID 32234) | 1 | 1872 | 4877 | 582 | 1040
Sbds (GeneID 38749) | 1 | 4616 | – | 2016 | –
CG3699 (GeneID 31046) | 1 | 29669 | – | 16561 | –
CG3699 (GeneID 31046) | 2 | 30944 | – | 17261 | –
CG34155 (GeneID 4379867) | 1 | 4608 | – | 1780 | –
Gyc76C + CG42637 | 1 | 4294 | – | 1719 | –
ast (GeneID 33282) | 1 | 8562 | – | 3808 | –

2 neighbouring entries from above, for reference:
target | reagent | firefly reporter light, replicate 1 | firefly reporter light, replicate 2 | Renilla control light, replicate 1 | Renilla control light, replicate 2
sfl (GeneID 38736) | 2 | 3152 | – | 1122 | –
Bili (GeneID 43019) | 1 | 4256 | 6765 | 1491 | 1274

Additional entries follow.
target | reagent | firefly reporter light, replicate 1 | firefly reporter light, replicate 2 | Renilla control light, replicate 1 | Renilla control light, replicate 2
e(r) (GeneID 43951) | 1 | 3019 | 7185 | 993 | 2482
boly (GeneID 35809) | 1 | 4.06e5 | 4.14e5 | 1.84e5 | 1.44e5
Impbeta11 + asRNA:CR43429 | 1 | 5801 | – | 2114 | –
Acp76A (GeneID 40078) | 1 | 12928 | – | 4327 | –
CG4161 (GeneID 34907) | 1 | 1992 | 4784 | 1037 | 2716
CG10086 (GeneID 40920) | 1 | 10936 | – | 2454 | –
Pex2 (GeneID 38941) | 1 | 4396 | – | 1961 | –
cDIP (GeneID 42512) | 1 | 2452 | 4984 | 1145 | 1691
asRNA:CR42547 + CG15674 | 1 | 2256 | 6625 | 788 | 2392
U4-U6-60K (GeneID 39955) | 1 | 6854 | – | 1849 | –
GlcAT-I (GeneID 251900) | 1 | 2738 | – | 1113 | –
Nubp1 (GeneID 35000) | 1 | 5818 | – | 1979 | –
CG4645 (GeneID 32244) | 1 | 2795 | 6336 | 802 | 1832
CG1663 (GeneID 36012) | 1 | 6000 | 11725 | 1552 | 5283
CG1663 (GeneID 36012) | 2 | 7.24e5 | 7.37e5 | 3.03e5 | 2.74e5
CG32182 (GeneID 317898) | 1 | 3858 | – | 1297 | –
p38b (GeneID 34780) | 1 | 3549 | 8083 | 1517 | 3273
veil (GeneID 36968) | 1 | 18721 | – | 5225 | –
koi (GeneID 35594) | 1 | 1632 | 3994 | 167 | 2429
koi (GeneID 35594) | 2 | 2380 | 5717 | 173 | 2854
Sps1 (GeneID 36587) | 1 | 12055 | – | 3376 | –
Ppox (GeneID 42939) | 1 | 24320 | – | 16256 | –
Dph2 (GeneID 41802) | 1 | 4265 | – | 2048 | –
CG7460 (GeneID 39973) | 1 | 5143 | – | 2288 | –
CG34124 (GeneID 4379887) | 1 | 29017 | – | 11376 | –
obst-F (GeneID 40209) | 1 | 14675 | – | 2944 | –
Doc1 (GeneID 39039) | 1 | 2885 | 8140 | 1815 | 4381
Tsp42Ek (GeneID 35621) | 1 | 2129 | 9513 | 669 | 3745
